Results are given in words; binding and its absence hold for the method and conditions named. For some of these results: In cells and extracts the contact can be indirect. For some of these results: A result given as binding can be weak or reduced; the word gives no strength. Tags and fused reporters may be left off the sequences shown.

Sequences of proteins named here, by UniProt entry; tags and fusion partners are left off. A change or cut given only in a name is not applied to a line headed by its entry.
UniProt O14733: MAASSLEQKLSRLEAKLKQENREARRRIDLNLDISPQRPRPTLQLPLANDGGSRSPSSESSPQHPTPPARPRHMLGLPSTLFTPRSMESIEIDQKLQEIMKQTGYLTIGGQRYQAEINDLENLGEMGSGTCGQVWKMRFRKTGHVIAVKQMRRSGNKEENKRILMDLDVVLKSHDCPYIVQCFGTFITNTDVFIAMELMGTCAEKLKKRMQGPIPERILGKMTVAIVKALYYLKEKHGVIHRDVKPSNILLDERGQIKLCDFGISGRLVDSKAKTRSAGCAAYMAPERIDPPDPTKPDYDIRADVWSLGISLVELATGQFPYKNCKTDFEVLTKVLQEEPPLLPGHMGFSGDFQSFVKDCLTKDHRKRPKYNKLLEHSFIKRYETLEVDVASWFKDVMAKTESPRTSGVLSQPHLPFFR

This passage reports binding results from patent US20050265970A1.

For assay [1], the target named is JNKK2 (132-401), in vitro translated (human) (UniProt O14733). The assay can be described thus: GST pull-down of 35S-labeled in vitro translated MKK7 truncations.
The target in assay [2] is JNKK2 (63-401), in vitro translated (human) (UniProt O14733). The assay is described as above.
In assay [3] the target is JNKK2 (91-401), in vitro translated (human) (UniProt O14733). The description is as above.
Assay [4] deals with JNKK2 (132-401), in vitro translated (human) (UniProt O14733). The assay is described as follows: GST pull-down of 35S-labeled in vitro translated JNKK2 truncations.
Assay [5] concerns the target JNKK2 (63-401), in vitro translated (human) (UniProt O14733). Described as above.
In assay [6] the target is JNKK2 (91-401), in vitro translated (human) (UniProt O14733). The assay is described as above.
The target of assay [7] is MKK6 (HA-tagged, in 293 cells). The assay can be described thus: combined immunoprecipitation and Western blot, 293 cells. A general note: Immunoblotting shows a protein as a band on a membrane.
Assay [8] deals with MKK3b (HA-tagged, in 293 cells). Described as above.
Assay [9] addresses MKK6 (HA-tagged, in 293 cells). The assay can be described thus: co-IP from 293 cells, anti-FLAG beads, anti-HA Western blot.
In assay [10] the target is MKK3b (HA-tagged, in 293 cells). The description is as above.

B1: GST-Gadd45β (full-length murine Gadd45β directly fused to GST) (protein, UniProt P22339 1-160, looked up, not shown: a dimerising Fc or GST)
chain: MTLEELVASDNAVQKMQAVTAAVEQLLVAAQRQDRLTVGVYEAAKLMNVDPDSVVLCLLAIDEEEEDDIALQIHFTLIQSFCCDNDIDIVRVSGMQRLAQLLGEPAETLGTTEARDLHCLLVTNCHTDSWKSQGLVEVASYCEESRGNNQWVPYISLEER
With B1, the binding result in [1], in [2], in assay [3], in assay [4], in assay [5] and in assay [6] was “binds” each time.

B2: FLAG-Gadd45β (full-length murine Gadd45β, pcDNA-FLAG-Gadd45β, expressed in 293 cells) (protein, UniProt P22339 1-160, looked up, not shown: small tags and cut ends)
chain: MTLEELVASDNAVQKMQAVTAAVEQLLVAAQRQDRLTVGVYEAAKLMNVDPDSVVLCLLAIDEEEEDDIALQIHFTLIQSFCCDNDIDIVRVSGMQRLAQLLGEPAETLGTTEARDLHCLLVTNCHTDSWKSQGLVEVASYCEESRGNNQWVPYISLEER
In the case of B2, the binding entry in assay [7], in [8], in assay [9] and in assay [10] was “no binding” in each case.
